These are yes or no findings as the source states them, for the method shown. Binding seen in cells or lysates may run through a third protein. Some entries that bind do so weakly or less than the wild type.
B1: Polycystin-2 (protein, UniProt O35245 1-966)
chain: MVNSRRVQPQPPGDAGRSPAPRASGPGRLVAGGAGLAVPGGLGEQRGLEIEMERIRQAAARDPPAGASASPSPPLSSCSRQAWSRDNPGFEAEEDDDDDEVEGEEGGMVVEMDVEWRPGSRRSASSSAVSSVGARGRGLGSYRGAAHLSGRRRRLEDQGAQCPSPAGGGDPLHRHLPLEGQPPRVAWAERLVRGLRGLWGTRLMEESNANREKYLKSVLRELVTYLFFLVVLCILTYGMMSSNVYYYTRTLSQLFIDTPVSKTEKTNFKTLSSMEDFWKFTEGSFLDGLYWKAQTSNHTQADNRSFIFYENLLLGVPRLRQLRVRNGSCSIPQDLRDEIKECYDVYSVSSEDRAPFGPRNGTAWMYTSEKELNGSSHWGIIASYSGAGYYLDLSRTREETAAQLAGLRRNFWLDRGTRAAFIDFSVYNANINLFCVVRLLAEFPATGGVVPSWQFQPVKLIRYVTAFDFFLAACEIIFCFFIIYYVVEEILEIRIHRLSYFRSFWNCLDVVIVVLSVVAMVINIYRMSNAEGLLQFLEDQNSFPNFEHVAYWQIQFNNISAVMVFLVWIKLFKFINFNRTMSQLSTTMSRCAKDLFGFTIMFSIIFLAYAQLAYLVFGTQVDDFSTFQECIFTQFRIILGDINFAEIEEANRVLGPLYFTTFVFFMFFILLNMFLAIINDSYSEVKSDLAQQKAEMELSDLIRKGCQKALVKLKLKRNTVDAISESLRQGGGKLNFDELRQDLKGKGHTDAEIEAIFTKYDQDGDQELTEREHQQMRDDLEKEREDLDLEHSSLPRPMSSRSFPRSLDDSEEEDDEDSGHSSRRRGSISSGVSYEEFQVLVRRVDRMEHSIGSIVSKIDAVIVKLEIMERAKLKRREVLGRLLDGVAEDARLGRDSEIHREQMERLVREELERWESDDAASQTGHGVSTQVGLGGQPHPRNPRPPSSQSAEGLEGGGGNGSANVHA
B2: nicotinamide nucleotide transhydrogenase (protein, UniProt Q61941 44-1086)
chain: CKSPVKPGIPYKQLTVGVPKEIFQNEKRVALSPAGVQALVKQGFNVVVESGAGEASKFPDDLYRAAGAQIQGMKEVLASDLVVKVRAPMVNPTLGAHEADFLKPSGTLISFIYPAQNPDLLNKLSERKTTVLAMDQVPRVTIAQGYDALSSMANISGYKAVVLAANHFGRFFTGQITAAGKVPPAKILIVGGGVAGLASAGAAKSMGAVVRGFDTRAAALEQFKSLGAEPLEVDLKESGEGQGGYAKEMSKEFIEAEMKLFAQQCKEVDILISTALIPGKKAPVLFSKEMIESMKEGSVVVDLAAEAGGNFETTKPGELYVHKGITHIGYTDLPSRMATQASTLYSNNITKLLKAISPDKDNFHFEVKDDFDFGTMSHVIRGTVVMKDGKVIFPAPTPKNIPEEAPVKPKTVAELEAEKAGTVSMYTKTLTTASVYSAGLTGMLGLGIVAPNVAFSQMVTTFGLAGIIGYHTVWGVTPALHSPLMSVTNAISGLTAVGGLALMGGHFYPSTTSQSLAALATFISSVNIAGGFLVTQRMLDMFKRPTDPPEYNYLYLLPGGTFVGGYLAALYGGYNIEEIMYLGSGLCCVGALGGLSTQGTARLGNALGMIGVAGGLAATLGGLKPDPQLLAQMSGAMAMGGTIGLTIAKRIQISDLPQLVAAFHSLVGLAAVLTCMAEYIVEYPHFAMDATSNFTKIVAYLGTYIGGVTFSGSLVAYGKLQGILKSAPLLLPGRHALNAGLLAASVGGIIPFMADPSFTTGITCLGSVSGLSTLMGVTLTAAIGGADMPVVITVLNSYSGWALCAEGFLLNNNLLTIVGALIGSSGAILSYIMCVAMNRSLANVILGGYGTTSTAGGKPMEISGTHTEINLDNAVEMIREANSIVITPGYGLCAAKAQYPIADLVKMLTEQGKKVRFGIHPVAGRMPGQLNVLLAEAGVPYDIVLEMDEINSDFPDTDLVLVIGANDTVNSAAQEDPNSIIAGMPVLEVWKSKQVIVMKRSLGVGYAAVDNPIFYKPNTAMLLGDAKKTCDALQAKVRESYQK

Sequences of proteins named here, by UniProt entry; tags and fusion partners are left off. Residues count along the entry.
UniProt O08852, residues 24-4293: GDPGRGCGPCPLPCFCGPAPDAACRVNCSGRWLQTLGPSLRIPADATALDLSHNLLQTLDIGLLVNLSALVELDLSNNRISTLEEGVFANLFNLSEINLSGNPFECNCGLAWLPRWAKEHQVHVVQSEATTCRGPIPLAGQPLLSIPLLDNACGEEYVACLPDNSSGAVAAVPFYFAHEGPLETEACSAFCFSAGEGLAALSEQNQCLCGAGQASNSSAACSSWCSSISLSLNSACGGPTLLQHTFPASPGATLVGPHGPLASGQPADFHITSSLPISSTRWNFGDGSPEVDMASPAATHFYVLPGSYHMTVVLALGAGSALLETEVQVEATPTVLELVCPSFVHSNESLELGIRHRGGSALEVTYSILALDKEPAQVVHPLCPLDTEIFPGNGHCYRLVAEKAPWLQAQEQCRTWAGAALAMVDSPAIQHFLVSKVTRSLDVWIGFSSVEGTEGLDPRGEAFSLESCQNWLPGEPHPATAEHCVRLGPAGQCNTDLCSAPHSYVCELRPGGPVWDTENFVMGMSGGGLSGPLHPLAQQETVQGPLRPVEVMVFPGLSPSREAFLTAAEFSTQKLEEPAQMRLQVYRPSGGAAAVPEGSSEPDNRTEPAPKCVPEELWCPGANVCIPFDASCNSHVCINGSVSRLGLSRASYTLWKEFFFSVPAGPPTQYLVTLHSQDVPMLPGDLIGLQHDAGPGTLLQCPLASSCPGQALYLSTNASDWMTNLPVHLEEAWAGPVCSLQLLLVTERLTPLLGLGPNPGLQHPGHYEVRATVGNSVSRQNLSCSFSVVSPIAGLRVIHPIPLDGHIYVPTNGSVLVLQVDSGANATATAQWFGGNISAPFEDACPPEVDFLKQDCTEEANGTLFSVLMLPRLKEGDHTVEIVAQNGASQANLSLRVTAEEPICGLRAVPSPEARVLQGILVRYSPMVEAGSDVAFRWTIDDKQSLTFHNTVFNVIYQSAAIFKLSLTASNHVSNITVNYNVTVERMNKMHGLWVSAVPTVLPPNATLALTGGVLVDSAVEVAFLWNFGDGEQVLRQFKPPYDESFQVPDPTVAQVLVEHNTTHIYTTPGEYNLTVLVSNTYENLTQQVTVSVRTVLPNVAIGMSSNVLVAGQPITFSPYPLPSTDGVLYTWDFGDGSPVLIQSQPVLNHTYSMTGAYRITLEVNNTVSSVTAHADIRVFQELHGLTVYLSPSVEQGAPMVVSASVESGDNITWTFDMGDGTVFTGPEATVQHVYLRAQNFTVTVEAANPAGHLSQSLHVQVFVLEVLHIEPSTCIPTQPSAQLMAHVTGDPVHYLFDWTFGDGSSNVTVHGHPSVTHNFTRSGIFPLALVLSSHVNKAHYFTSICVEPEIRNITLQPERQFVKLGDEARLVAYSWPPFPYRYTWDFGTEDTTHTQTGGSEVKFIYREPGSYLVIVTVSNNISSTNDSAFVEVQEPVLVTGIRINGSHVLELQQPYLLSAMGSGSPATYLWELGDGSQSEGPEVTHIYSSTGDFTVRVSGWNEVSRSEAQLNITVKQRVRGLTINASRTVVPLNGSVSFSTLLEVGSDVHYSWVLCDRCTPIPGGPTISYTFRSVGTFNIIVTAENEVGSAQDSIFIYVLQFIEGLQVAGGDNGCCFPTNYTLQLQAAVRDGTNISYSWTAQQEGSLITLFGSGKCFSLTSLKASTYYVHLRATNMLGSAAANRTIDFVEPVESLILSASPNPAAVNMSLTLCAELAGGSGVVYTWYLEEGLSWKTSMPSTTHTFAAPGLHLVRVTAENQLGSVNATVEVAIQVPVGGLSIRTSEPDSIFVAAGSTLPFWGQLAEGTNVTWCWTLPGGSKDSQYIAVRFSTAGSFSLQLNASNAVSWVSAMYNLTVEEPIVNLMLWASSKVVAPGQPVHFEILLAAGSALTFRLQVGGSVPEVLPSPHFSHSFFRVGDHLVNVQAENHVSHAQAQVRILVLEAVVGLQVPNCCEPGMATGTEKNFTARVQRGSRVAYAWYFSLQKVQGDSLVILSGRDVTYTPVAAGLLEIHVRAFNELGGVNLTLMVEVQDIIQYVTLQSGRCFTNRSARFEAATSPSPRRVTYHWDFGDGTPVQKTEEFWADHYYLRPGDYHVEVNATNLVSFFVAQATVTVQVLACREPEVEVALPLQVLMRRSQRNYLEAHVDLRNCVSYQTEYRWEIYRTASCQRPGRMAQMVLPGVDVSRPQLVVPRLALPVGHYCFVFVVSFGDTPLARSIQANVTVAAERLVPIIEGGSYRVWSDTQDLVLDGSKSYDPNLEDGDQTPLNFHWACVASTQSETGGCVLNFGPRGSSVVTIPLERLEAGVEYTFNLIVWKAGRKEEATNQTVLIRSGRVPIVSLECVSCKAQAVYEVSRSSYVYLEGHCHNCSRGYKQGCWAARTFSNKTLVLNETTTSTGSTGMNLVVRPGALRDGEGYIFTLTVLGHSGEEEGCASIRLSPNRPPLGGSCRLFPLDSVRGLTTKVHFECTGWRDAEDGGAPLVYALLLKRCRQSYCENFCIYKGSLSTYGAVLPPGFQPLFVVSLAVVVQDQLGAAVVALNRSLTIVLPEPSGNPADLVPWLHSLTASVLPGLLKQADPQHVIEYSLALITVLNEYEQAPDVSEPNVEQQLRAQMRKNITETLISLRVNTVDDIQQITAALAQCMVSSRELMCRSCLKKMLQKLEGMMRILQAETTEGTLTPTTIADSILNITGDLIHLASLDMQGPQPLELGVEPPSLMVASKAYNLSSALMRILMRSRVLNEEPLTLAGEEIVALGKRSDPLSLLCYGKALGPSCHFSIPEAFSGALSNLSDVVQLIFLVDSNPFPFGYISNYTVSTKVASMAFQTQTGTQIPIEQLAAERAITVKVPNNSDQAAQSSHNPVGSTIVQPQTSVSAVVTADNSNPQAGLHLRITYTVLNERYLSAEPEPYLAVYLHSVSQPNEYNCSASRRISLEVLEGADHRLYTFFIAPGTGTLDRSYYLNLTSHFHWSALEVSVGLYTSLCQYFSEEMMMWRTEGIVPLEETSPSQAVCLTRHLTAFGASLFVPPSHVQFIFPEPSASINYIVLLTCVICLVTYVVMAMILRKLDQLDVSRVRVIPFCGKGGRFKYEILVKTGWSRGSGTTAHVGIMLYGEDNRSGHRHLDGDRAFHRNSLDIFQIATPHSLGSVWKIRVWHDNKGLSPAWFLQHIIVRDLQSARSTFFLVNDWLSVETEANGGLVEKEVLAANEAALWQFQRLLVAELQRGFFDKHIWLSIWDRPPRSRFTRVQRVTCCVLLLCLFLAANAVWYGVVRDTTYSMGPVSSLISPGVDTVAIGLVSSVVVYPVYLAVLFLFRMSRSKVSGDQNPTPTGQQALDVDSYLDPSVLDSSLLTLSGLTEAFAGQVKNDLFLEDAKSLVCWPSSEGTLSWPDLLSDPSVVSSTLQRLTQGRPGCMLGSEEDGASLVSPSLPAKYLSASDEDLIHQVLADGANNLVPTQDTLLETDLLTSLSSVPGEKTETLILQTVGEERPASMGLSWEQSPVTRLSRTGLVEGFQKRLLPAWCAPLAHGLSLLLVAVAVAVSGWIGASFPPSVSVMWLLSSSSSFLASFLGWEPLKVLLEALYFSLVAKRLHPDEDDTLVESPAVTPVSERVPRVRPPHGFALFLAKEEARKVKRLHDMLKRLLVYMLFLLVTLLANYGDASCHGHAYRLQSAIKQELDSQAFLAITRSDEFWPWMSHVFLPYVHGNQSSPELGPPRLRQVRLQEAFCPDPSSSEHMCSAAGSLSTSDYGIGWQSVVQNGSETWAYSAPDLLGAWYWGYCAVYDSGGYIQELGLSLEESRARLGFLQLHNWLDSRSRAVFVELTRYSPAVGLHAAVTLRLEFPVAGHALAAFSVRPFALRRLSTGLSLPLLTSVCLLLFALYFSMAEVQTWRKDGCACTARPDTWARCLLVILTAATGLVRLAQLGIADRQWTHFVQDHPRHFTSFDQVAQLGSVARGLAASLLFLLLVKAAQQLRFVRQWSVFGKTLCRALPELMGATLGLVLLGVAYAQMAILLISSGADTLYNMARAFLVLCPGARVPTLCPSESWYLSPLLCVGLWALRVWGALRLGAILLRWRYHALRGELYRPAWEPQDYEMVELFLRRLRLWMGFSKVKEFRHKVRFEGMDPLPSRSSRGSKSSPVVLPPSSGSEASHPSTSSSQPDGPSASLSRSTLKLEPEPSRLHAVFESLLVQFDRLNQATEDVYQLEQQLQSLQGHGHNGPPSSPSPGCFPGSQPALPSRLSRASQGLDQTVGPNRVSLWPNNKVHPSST

Target: Polycystin-1 with eGFP and three HA tags at its C-terminus, from the Pkd1^eGFP knock-in allele (mouse) (UniProt O08852)
Assay: co-IP; Mouse tissue lysate (1% Triton X-100, 150 mM NaCl, 50 mM Tris HCl pH 8.0, 0.25% sodium deoxycholate). PC1-eGFP precipitated with anti-GFP nanobody magnetic agarose beads (GFP-trap), 1 hr at 4°C, with quick gentle washes; more stringent washing for one P2 kidney panel. Immunoblot with anti-PC2 or anti-NNT. Wild type mice without the tag served as control.

Row | Binder | binding
1 | B1 | binds
2 | B2 | binds

Source: article PMC10403143
